Laboratory results reported in PMC8518250.
No constants are given. Whether binding was seen depends on the method and setting. Binding seen in cells or lysates may run through a third protein. Binding calls can cover weak binding; strength is not graded here.

Target: recombinant GST-HBeAg (hepatitis B e antigen) (hepatitis B virus)
Experiment: co-IP; mixed recombinant proteins (GST-HBeAg and extracellular segment of TLR-2) incubated with GST or TLR-2 antibody or isotype IgG overnight at 4°C; Capturem IP & Co-IP Kit spin column; western blot with GST or TLR-2 antibody; both purified

B1: recombinant mouse TLR-2, extracellular segment (receptor, UniProt Q9QUN7 25-587)
chain: QESLSCDASGVCDGRSRSFTSIPSGLTAAMKSLDLSFNKITYIGHGDLRACANLQVLILKSSRINTIEGDAFYSLGSLEHLDLSDNHLSSLSSSWFGPLSSLKYLNLMGNPYQTLGVTSLFPNLTNLQTLRIGNVETFSEIRRIDFAGLTSLNELEIKALSLRNYQSQSLKSIRDIHHLTLHLSESAFLLEIFADILSSVRYLELRDTNLARFQFSPLPVDEVSSPMKKLAFRGSVLTDESFNELLKLLRYILELSEVEFDDCTLNGLGDFNPSESDVVSELGKVETVTIRRLHIPQFYLFYDLSTVYSLLEKVKRITVENSKVFLVPCSFSQHLKSLEFLDLSENLMVEEYLKNSACKGAWPSLQTLVLSQNHLRSMQKTGEILLTLKNLTSLDISRNTFHPMPDSCQWPEKMRFLNLSSTGIRVVKTCIPQTLEVLDVSNNNLDSFSLFLPRLQELYISRNKLKTLPDASLFPVLLVMKIRENAVSTFSKDQLGSFPKLETLEAGDNHFVCSCELLSFTMETPALAQILVDWPDSYLCDSPPRLHGHRLQDARPSVLECHQ
In the case of B1, the binding is reported as “binds”.
